Test results taken from paper PMC11109516.
Changes are numbered by the printed parent chain. Results are given in words; binding and its absence hold for the method and conditions named. Binding seen in cells or lysates may run through a third protein. Some results given as binding are weak or reduced against the parent protein; the word gives no strength. For some of these results: Tags and fused reporters may be left off the sequences shown.

Amino acid sequences for entries named in this document (tags omitted). A change or cut given only in a name is not applied to a line headed by its entry.
UniProt Q96CV9: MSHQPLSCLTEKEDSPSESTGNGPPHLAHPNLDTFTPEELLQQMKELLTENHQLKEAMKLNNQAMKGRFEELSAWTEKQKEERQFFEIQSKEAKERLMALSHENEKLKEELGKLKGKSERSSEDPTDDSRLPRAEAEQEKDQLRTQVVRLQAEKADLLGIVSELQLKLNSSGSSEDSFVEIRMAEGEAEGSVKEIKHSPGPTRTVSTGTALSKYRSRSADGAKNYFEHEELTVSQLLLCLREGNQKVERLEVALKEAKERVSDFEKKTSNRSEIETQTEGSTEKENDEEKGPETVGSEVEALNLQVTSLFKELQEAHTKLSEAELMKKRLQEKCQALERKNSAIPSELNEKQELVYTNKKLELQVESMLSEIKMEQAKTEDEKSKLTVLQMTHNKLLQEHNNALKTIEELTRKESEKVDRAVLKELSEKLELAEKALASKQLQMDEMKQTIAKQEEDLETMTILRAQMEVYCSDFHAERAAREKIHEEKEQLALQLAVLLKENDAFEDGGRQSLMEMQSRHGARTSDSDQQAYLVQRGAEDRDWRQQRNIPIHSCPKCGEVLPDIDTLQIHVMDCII
UniProt P29466: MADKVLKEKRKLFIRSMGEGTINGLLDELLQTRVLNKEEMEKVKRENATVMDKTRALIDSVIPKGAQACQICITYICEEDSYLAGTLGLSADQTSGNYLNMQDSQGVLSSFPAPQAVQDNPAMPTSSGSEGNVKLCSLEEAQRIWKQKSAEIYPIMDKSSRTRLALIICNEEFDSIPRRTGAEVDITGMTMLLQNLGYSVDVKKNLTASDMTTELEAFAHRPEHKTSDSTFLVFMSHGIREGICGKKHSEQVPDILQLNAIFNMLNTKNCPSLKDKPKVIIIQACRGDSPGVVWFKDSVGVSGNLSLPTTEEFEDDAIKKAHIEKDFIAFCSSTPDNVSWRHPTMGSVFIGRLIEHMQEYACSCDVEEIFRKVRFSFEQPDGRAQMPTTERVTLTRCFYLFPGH

Key:
[1] = biological target: T1, Flag-GSDMD, wild type (human) (UniProt P57764); test: co-IP; HEK293T cells transfected with tagged proteins; lysates with anti-Flag or anti-Myc beads at 4 °C overnight, washed with low-salt lysis buffer (50 mM HEPES pH 8.0, 150 mM NaCl, 1% Triton X-100); Fig. 3M to O after Baf A1 (0.2 μM, 6 h)
T1 sequence: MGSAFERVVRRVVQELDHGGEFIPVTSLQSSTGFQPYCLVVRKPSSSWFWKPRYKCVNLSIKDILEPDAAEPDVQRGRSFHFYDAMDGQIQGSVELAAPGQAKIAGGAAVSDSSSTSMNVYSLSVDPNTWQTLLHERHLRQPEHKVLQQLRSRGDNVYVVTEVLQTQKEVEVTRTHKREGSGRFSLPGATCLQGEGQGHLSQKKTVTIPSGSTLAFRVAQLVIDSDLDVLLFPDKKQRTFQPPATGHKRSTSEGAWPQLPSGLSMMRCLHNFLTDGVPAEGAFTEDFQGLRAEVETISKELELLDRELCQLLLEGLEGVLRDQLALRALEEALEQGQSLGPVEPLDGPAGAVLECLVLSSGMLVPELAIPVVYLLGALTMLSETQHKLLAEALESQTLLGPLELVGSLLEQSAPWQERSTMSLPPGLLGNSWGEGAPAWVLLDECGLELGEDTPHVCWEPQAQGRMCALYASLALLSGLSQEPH

Flag-GSDMD K168R (human) = biological target: T2, Flag-GSDMD K168R (human) (UniProt P57764); test: co-IP; BECN1-KO HEK293T cells transfected with Myc-CASP1 or Myc-CASP4 and Flag-GSDMD WT or K168R for 24 h; level of co-precipitated Myc-CASP1/4 quantified
T2 sequence: T1 sequence with K168R

[2] = biological target: T1, Flag-GSDMD, wild type (human); test: as above
[3] = biological target: T3, GSDMD, wild type, as used in the co-precipitations of the supplementary figures (S1D, S2Q, S5C, S6D, S6E) (human) (UniProt P57764); test: co-IP; co-precipitations of the supplementary figures (S1D, S2Q, S5A to C, S6D and E); legends not shown; HEK293T cells where the text tells; S2Q with control or USP18 knock-down, S5C with overexpressed USP18 or USP18 C64A
T3 sequence: T1 sequence

[4] = biological target: T4, GSDMD, endogenous in THP-1-derived macrophages (human (endogenous in THP-1)) (UniProt P57764); test: co-IP; endogenous proteins in THP-1-derived macrophages (mock, LPS, LPS plus ATP, poly(dA:dT) or flagellin; wild type, USP18-KD or USP18-KO); antibodies plus Protein A/G beads at 4 °C overnight
T4 sequence: T1 sequence

Substance: HA-OPTN (from UniProt Q96CV9 1-577)
- binding [1]: binds

Substance: HA-p62 (from UniProt Q13501 1-440)
- binding [1]: binds

Substance: Myc-caspase-1 (from UniProt P29466 1-404) (enzyme)
- binding (Flag-GSDMD K168R (human)): binds
- binding [2]: binds

Substance: OPTN, as used in Fig. S2Q (from UniProt Q96CV9 1-577)
- binding [3]: binds

Substance: OPTN, endogenous in THP-1-derived macrophages (from UniProt Q96CV9 1-577)
- binding [4]: binds

Substance: p62, endogenous in THP-1-derived macrophages (from UniProt Q13501 1-440)
- binding [4]: binds
